Source: PubChem BioAssay AID540256 (National Center for Advancing Translational Sciences (NCATS), 2011)
Where “and” joins values, the source holds several entries; their conditions need not be identical. Identical values can stand only once. Out of some 300,000 compounds screened, about 3,700 (1.2%) were called active. The shares of active, inactive and inconclusive entries below differ from those in the screen. Calls follow the shape of the full dose curve; tested in HEK293 cells. Where the call is inconclusive, the potency comes from a doubtful curve fit.

Test: qHTS for Inhibitors of binding or entry into cells for Lassa Virus; also: nearly all actives have a fitted effect of over 50% in size
Conditions: Lassa virus pseudotype entry inhibition, cell reporter; series mostly up to 37.9 µM
Potency is read from the fitted curve at half-maximal effect.

Question: For `CN(C)c1ccc(P(=O)(Nc2cccc(C(F)(F)F)c2)N2CCOCC2)c(NC(=O)c2cccs2)c1` (centres undefined), which Potency is on record?
Answer: Its Potency is “inactive”.

Question: For `CCC(=O)c1ccc(N2CCCC2)c(F)c1`, which Potency is on record?
Answer: The Potency was inconclusive: 4.47 µM [activator, partial curve, poor fit].

Question: Which Potency does the source give for `COC1CCCN(C(=O)c2ccc3nc(Cc4cccc(Cl)c4)oc3c2)C1` (centres undefined) here?
Answer: The Potency was “inactive”.

Question: With `N#Cc1c(N)nc2c3c(sc(=N)c2c1N)NC(=O)CC3c1c(F)cccc1Cl` (centres undefined) as the compound, how does the Potency read?
Answer: Its Potency is “inactive”.

Question: With `N#C/C(C(=O)N1CCCCC1)=C1/N=C(NC(=O)c2ccc(F)cc2)c2ccccc21` as the compound, how does the Potency read?
Answer: Its Potency is inconclusive: 20 µM [activator, single point].

Question: For `O=C(N/N=C/c1ccc(F)cc1)c1ccc(Br)cc1`, which Potency is on record?
Answer: Its Potency is “inactive”.

Question: For `O=C(CCn1c(=O)c2cccn2c2cccnc21)N1CCN(c2cccc(C(F)(F)F)c2)CC1`, which Potency is on record?
Answer: Its Potency is “inactive”.

Question: For `COc1ccc(NS(=O)(=O)c2ccc3nc(COc4cccc5ccccc45)[nH]c3c2)cc1`, which Potency is on record?
Answer: Its Potency is inconclusive: 22.4 µM [inhibitor, single point].

Question: With `CN1CCN(c2ccc(Nc3ccnc4cc(Cl)ccc34)cc2)CC1` as the compound, how does the Potency read?
Answer: The Potency was active: 2.51 µM.

Question: For `Cc1cccc(CS(=O)(=O)c2ncc(Cl)c(C(=O)Nc3nnc(C(C)C)s3)n2)c1`, which Potency is on record?
Answer: The Potency was inconclusive: 17.8 µM [inhibitor, partial curve, poor fit] and inconclusive: 14.1 µM [inhibitor, partial curve, poor fit].

Question: For `CCc1cc(SC#N)cc(CC)c1NC(=O)CCl`, which Potency is on record?
Answer: The Potency was inconclusive: 0.411 µM [inhibitor, full curve, poor fit].

Question: With `C/C(=N/NC(=O)c1cc(C)[nH]n1)c1ccncc1` as the compound, how does the Potency read?
Answer: Its Potency is inconclusive: 3.16 µM [activator, full curve, poor fit].

Question: Which Potency does the source give for `Cc1c(Cl)cccc1NC(=S)N(CCCN1CCOCC1)Cc1cccs1` here?
Answer: Its Potency is inconclusive: 1.26 µM [inhibitor, single point].

Question: For `CCCC(=O)Nc1cc(-c2nn(C)c(=O)c3ccccc23)ccc1N1CCOCC1`, which Potency is on record?
Answer: The Potency was inconclusive: 31.6 µM [activator, single point].

Question: With `COc1ccc(NC2CCN(C3CC(=O)N(c4ccc(F)c(Cl)c4)C3=O)CC2)cc1` (centres undefined) as the compound, how does the Potency read?
Answer: Its Potency is “inactive”.

Question: For `COc1ccc(CCNC(=O)C(=O)NCC(c2ccco2)S(=O)(=O)c2ccc(C)cc2)cc1` (centres undefined), which Potency is on record?
Answer: Its Potency is inconclusive: 35.5 µM [inhibitor, single point].

Question: With `CCOc1ccccc1/C=C(/NC(=O)c1ccccc1)C(=O)N(CC)CC` as the compound, how does the Potency read?
Answer: Its Potency is inconclusive: 11.2 µM [activator, partial curve, poor fit].

Question: Which Potency does the source give for `Cc1nnc(SCc2nc3ccccc3[nH]2)s1` here?
Answer: The Potency was “inactive”.

Question: With `CCOC(=O)c1c(NC(=O)C2=C(C)NC(=S)NC2c2ccc(C)cc2)sc(C)c1C` (centres undefined) as the compound, how does the Potency read?
Answer: The Potency was inconclusive: 8.91 µM [inhibitor, partial curve].

Question: With `CCOC(=O)c1c(-c2ccccc2)csc1NC(=O)CSc1nncs1` as the compound, how does the Potency read?
Answer: Its Potency is inconclusive: 22.4 µM [inhibitor, single point].

Question: With `O=C(CNC(=O)c1n[nH]c2ccccc12)Nc1ccc(F)c(F)c1F` as the compound, how does the Potency read?
Answer: Its Potency is “inactive”.

Question: With `Cc1ccc(-c2nnc(CCC(=O)NCC3C4CC5CC(C4)CC3C5)o2)s1` (centres undefined) as the compound, how does the Potency read?
Answer: The Potency was “inactive”.

Question: Which Potency does the source give for `Cc1ccccc1-c1cc(-c2ccccc2O)on1` here?
Answer: The Potency was inconclusive: 1.83 µM [activator, partial curve, poor fit].

Question: With `Nc1ccc2c(c1)Oc1ccccc1C=C2` as the compound, how does the Potency read?
Answer: The Potency was inconclusive: 1 µM [inhibitor, full curve, poor fit].

Question: Which Potency does the source give for `Cc1ccc2nc(SCC3CCCCO3)[nH]c2c1` (centres undefined) here?
Answer: The Potency was inconclusive: 5.62 µM [inhibitor, full curve, poor fit].

Question: With `Nc1ccc2c(c1)C(=O)c1ccc(N)cc1-2` as the compound, how does the Potency read?
Answer: Its Potency is “inactive”.

Question: With `O=C(Nc1ccc(N2CCCCC2)cc1)c1ccccn1` as the compound, how does the Potency read?
Answer: Its Potency is active: 0.517 µM.

Question: With `Nc1c(N(CCC2=CCCCC2)C(=O)CCCOc2ccccc2)c(=O)[nH]c(=O)n1Cc1ccccc1` as the compound, how does the Potency read?
Answer: The Potency was inconclusive: 6.31 µM [inhibitor, single point].

Question: For `Cc1ccccc1OCC(=O)Nc1ccc2oc(=O)ccc2c1`, which Potency is on record?
Answer: Its Potency is inconclusive: 35.5 µM [inhibitor, single point].

Question: For `CCCCn1c(SCC(=O)N2c3ccccc3CCc3ccccc32)nc2c1c(=O)n(C)c(=O)n2C`, which Potency is on record?
Answer: Its Potency is “inactive”.

Question: With `O=C(OCc1ccccc1)N(CCCCN(CCCNCc1ccccc1)C(=O)OCc1ccccc1)CCCNCc1ccccc1` as the compound, how does the Potency read?
Answer: The Potency was inconclusive: 22.4 µM [inhibitor, single point].

Question: For `CC(=O)c1[nH]c(C)c(C(=O)N2CCCC(Nc3ccc(C(C)C)cc3)C2)c1C` (centres undefined), which Potency is on record?
Answer: The Potency was inconclusive: 12.6 µM [inhibitor, partial curve, poor fit].

Question: For `CC(C)C(NC(=O)OCc1ccccc1)C(=O)OCC(=O)NC1CC1` (centres undefined), which Potency is on record?
Answer: Its Potency is inconclusive: 0.562 µM [inhibitor, full curve, poor fit].

Question: Which Potency does the source give for `CC(NCc1ccc(F)cc1)C(=O)NC1CCCCC1` (centres undefined) here?
Answer: The Potency was “inactive”.

Question: With `CC(=O)c1c(C)n(CCc2ccc(Cl)cc2)c2ccc(O)cc12` as the compound, how does the Potency read?
Answer: Its Potency is “inactive”.

Question: Which Potency does the source give for `CCOc1ccccc1CN(Cc1ccco1)S(=O)(=O)c1ccc(-n2cnnn2)c(OC)c1` here?
Answer: The Potency was inconclusive: 9.2 µM [inhibitor, partial curve, poor fit].

Question: With `Cc1ccccc1C(=O)N1CCN(c2ccc(NC(=O)c3ccco3)cc2Cl)CC1` as the compound, how does the Potency read?
Answer: The Potency was active: 10 µM.

Question: With `CCC(C(=O)Nc1cc(C)ccc1C)n1c(=O)c(C(F)(F)F)nc2ccccc21` (centres undefined) as the compound, how does the Potency read?
Answer: Its Potency is “inactive”.

Question: With `O=C(Nc1ccc2ncccc2c1)c1cc(Cl)ccc1Cl` as the compound, how does the Potency read?
Answer: Its Potency is “inactive”.

Question: For `COc1ccc(C(=O)/C=C/c2cn(CC(O)CN3CCc4ccccc43)c3ccccc23)cc1OC` (centres undefined), which Potency is on record?
Answer: The Potency was inconclusive: 12.6 µM [inhibitor, partial curve, poor fit].

Question: Which Potency does the source give for `COc1ccc(N2CC(C(=O)OCC(=O)c3ccccc3)CC2=O)cc1` (centres undefined) here?
Answer: The Potency was inconclusive: 35.5 µM [activator, single point].

Question: With `Cc1ccccc1CSCCNC(=O)CCSc1ccccc1` as the compound, how does the Potency read?
Answer: Its Potency is inconclusive: 0.73 µM [activator, single point].

Question: Which Potency does the source give for `N#Cc1ccc(C(=O)Nc2nc3ccccc3[nH]2)cc1` here?
Answer: Its Potency is inconclusive: 8.91 µM [inhibitor, single point].

Question: Which Potency does the source give for `CCC(=O)Nc1ccc2c(c1)C(=O)c1ccccc1C2=O` here?
Answer: Its Potency is inconclusive: 10.3 µM [inhibitor, single point].
